Laboratory results published in the supplement of paper PMC10849652.
The list shows a part of the results.

Chains of the proteins cited; added tags and fusions are not shown. Lines headed by an entry give the natural chain unless they say otherwise; changes in a name come on top.
UniProt Q8IY18: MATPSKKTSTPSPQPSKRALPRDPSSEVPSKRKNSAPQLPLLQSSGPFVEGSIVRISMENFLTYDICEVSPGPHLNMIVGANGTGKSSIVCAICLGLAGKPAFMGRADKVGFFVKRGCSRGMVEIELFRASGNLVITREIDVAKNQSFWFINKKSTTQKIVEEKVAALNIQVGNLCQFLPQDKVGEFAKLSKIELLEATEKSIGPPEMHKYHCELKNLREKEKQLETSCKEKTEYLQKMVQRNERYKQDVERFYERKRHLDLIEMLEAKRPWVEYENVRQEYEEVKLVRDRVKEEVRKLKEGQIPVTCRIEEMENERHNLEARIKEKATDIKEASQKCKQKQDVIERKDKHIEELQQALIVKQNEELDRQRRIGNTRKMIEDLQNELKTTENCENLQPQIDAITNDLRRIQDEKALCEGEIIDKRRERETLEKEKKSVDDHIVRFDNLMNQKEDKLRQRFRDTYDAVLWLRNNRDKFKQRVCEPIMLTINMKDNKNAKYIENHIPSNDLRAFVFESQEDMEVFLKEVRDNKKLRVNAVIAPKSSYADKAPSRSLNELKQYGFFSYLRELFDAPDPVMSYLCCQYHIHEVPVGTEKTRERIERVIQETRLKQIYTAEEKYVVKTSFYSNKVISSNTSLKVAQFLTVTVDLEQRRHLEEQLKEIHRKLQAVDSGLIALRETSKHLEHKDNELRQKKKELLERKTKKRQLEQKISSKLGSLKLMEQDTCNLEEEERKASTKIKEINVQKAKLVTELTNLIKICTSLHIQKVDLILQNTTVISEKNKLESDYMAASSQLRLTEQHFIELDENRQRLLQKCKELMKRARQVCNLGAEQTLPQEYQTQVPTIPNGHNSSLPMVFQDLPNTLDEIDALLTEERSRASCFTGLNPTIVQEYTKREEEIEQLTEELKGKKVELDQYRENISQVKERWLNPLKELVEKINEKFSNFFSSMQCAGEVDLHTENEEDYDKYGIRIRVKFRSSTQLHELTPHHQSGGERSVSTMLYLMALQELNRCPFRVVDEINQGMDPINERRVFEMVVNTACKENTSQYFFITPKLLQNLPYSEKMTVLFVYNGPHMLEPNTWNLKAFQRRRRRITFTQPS
UniProt O60749: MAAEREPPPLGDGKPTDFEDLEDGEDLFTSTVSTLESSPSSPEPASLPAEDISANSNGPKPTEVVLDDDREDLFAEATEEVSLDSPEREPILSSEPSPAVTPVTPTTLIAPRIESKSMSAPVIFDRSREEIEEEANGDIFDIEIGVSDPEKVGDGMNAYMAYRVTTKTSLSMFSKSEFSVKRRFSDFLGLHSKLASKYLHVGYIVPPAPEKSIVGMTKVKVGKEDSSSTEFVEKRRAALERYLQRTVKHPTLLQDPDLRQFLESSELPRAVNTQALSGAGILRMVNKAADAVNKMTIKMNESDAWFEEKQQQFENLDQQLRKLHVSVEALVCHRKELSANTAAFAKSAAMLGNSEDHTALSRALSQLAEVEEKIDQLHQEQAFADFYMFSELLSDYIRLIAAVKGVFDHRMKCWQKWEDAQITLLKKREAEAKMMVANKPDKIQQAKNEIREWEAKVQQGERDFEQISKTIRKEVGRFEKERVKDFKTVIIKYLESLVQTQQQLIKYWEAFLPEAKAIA
UniProt P57768: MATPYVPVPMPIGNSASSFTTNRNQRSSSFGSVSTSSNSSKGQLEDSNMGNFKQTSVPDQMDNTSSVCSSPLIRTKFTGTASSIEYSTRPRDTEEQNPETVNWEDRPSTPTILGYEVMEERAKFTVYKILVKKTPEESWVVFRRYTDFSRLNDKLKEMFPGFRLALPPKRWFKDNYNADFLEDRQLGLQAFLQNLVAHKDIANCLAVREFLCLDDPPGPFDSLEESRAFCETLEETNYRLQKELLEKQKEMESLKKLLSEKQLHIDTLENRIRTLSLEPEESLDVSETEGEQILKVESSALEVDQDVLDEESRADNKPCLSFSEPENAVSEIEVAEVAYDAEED
UniProt Q02446, whole entry, looked up: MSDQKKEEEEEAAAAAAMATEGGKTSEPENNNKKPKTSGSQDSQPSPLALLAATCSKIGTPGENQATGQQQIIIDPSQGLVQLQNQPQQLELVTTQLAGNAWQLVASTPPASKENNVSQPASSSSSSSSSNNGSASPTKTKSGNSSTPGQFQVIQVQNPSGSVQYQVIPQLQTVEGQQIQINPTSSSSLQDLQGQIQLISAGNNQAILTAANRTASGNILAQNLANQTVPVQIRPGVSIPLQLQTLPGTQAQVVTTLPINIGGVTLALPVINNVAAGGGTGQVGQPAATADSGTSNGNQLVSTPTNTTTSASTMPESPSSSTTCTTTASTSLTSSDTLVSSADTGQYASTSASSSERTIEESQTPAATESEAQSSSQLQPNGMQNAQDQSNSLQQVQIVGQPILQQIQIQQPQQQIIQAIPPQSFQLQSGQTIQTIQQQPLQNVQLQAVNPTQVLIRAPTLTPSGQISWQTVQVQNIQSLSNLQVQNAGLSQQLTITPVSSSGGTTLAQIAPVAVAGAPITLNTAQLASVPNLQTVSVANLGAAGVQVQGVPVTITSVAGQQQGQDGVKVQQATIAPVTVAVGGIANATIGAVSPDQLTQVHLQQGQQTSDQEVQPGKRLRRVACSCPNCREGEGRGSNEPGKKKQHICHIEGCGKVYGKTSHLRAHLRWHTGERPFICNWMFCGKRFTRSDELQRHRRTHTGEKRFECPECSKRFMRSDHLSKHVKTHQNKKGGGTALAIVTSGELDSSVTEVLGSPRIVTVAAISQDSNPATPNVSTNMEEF
UniProt Q5SQN1: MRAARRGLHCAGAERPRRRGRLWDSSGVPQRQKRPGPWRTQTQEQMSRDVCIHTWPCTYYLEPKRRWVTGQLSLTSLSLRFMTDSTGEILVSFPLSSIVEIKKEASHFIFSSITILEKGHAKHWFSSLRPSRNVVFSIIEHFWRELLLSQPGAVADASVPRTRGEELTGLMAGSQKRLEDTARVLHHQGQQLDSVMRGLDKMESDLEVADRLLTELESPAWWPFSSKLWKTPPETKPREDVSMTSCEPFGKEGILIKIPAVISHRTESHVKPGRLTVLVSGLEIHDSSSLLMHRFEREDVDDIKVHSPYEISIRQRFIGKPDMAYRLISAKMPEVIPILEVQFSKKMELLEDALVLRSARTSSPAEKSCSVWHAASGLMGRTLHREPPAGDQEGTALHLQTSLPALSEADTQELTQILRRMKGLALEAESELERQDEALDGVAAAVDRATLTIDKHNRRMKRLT
UniProt P09486: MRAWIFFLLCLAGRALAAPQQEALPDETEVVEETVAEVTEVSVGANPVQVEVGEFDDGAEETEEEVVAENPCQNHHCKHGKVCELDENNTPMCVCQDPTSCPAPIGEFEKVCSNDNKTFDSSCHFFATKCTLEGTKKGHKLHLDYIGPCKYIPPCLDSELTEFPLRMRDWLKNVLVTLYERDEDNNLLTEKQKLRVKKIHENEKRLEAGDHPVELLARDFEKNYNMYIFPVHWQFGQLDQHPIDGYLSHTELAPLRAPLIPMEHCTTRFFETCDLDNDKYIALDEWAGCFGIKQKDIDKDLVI
UniProt O60504: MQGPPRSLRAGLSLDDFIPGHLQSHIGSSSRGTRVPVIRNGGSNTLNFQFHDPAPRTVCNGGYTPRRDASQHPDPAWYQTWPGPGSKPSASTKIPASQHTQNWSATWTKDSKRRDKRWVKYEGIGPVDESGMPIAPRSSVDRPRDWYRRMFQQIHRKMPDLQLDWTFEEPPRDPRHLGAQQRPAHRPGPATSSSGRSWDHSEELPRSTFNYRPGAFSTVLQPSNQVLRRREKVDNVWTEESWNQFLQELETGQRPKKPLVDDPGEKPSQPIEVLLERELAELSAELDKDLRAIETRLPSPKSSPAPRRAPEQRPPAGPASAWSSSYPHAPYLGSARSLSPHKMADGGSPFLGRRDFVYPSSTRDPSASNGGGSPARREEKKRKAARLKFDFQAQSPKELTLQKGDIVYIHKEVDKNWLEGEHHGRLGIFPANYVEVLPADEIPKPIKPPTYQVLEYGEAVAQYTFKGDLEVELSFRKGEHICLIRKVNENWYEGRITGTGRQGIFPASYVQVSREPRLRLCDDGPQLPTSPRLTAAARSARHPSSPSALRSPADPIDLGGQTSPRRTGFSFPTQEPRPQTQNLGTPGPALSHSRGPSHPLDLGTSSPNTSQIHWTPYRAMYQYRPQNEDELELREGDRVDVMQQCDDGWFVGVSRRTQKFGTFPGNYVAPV
UniProt Q8N5G0: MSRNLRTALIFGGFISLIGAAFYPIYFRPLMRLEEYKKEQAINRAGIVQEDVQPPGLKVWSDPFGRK
UniProt Q13487, whole entry, looked up: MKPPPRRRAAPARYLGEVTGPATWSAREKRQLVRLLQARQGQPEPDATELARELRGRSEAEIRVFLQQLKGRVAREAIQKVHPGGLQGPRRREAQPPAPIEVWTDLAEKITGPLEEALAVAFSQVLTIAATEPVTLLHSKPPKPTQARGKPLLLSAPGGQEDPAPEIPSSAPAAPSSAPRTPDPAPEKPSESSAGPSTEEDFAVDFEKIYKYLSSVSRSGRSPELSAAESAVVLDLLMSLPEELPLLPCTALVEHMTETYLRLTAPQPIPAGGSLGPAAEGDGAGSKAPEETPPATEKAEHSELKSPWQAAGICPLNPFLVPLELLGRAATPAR
UniProt O95219: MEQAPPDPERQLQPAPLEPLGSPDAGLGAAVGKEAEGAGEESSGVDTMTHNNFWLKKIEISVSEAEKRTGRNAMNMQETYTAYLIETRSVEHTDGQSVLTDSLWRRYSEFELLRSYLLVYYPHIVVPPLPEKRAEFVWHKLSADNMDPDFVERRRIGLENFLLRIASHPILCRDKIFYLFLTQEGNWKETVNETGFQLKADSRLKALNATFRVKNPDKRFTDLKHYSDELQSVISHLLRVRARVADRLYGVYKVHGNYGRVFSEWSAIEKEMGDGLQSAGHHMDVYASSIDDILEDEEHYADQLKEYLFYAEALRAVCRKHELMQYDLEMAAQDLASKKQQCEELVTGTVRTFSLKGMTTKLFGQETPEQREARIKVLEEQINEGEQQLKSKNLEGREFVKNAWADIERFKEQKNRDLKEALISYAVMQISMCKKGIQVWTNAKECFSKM
UniProt Q92966: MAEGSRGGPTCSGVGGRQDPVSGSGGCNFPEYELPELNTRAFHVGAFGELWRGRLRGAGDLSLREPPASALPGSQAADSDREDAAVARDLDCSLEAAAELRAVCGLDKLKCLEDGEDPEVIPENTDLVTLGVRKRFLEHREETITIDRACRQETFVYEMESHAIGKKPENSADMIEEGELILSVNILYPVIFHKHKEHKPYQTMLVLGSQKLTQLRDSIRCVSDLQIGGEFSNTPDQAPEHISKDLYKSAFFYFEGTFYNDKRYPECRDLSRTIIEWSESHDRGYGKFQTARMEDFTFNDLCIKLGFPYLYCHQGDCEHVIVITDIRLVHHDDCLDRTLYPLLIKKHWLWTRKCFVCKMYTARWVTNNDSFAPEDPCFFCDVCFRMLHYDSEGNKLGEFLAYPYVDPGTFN
UniProt P35711: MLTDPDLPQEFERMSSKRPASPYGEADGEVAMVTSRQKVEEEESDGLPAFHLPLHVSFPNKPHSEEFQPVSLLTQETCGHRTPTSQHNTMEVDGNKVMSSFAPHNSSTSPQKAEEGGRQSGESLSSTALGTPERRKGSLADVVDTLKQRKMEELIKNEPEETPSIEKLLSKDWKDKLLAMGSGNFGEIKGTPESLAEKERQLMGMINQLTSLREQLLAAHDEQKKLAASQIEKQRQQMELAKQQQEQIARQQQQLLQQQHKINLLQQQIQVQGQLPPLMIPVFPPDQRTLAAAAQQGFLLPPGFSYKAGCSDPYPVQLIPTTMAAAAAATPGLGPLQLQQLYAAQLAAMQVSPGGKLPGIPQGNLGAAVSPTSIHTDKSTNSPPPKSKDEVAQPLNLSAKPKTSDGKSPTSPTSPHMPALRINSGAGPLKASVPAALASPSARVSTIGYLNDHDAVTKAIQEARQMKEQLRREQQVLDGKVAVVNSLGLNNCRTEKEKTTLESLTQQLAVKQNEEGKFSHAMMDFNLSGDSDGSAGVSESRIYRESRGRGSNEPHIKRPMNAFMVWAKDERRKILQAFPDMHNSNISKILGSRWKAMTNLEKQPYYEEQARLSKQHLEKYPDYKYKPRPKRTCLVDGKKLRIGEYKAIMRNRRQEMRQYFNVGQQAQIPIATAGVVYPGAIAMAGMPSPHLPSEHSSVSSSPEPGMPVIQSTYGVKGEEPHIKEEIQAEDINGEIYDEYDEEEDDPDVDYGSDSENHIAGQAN
UniProt O15370: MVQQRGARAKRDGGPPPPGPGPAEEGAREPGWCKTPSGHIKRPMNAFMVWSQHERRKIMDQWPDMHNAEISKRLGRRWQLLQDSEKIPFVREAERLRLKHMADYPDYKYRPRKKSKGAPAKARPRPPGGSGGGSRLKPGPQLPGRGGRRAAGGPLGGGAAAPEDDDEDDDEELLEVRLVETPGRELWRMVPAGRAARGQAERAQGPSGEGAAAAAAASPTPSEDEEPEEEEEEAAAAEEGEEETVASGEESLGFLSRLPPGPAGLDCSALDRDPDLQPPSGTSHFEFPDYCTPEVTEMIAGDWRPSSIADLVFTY

Assays:
Experiment in all cases: log2 fold change, soluble protein after heating vs DMSO (PISA); higher = thermal stabilisation; K562 lysate, 10 uM; active = over 0.2 and 3.5 SD of the protein, either way, in both replicates (recomputed)
ibrutinib = compound: C=CC(=O)N1CCC[C@@H](n2nc(-c3ccc(Oc4ccccc4)cc3)c3c(N)ncnc32)C1 [ibrutinib]
How it was run: (§1)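 Quantification was by TMTpro 16plex LC-MS/MS with equalised channel sums, applied to the supernatant after 21,000xg for 90 min. Samples were crude K562 extract at 1 mg/mL protein in PBS pH 7.4 with 1 mM MgCl2, treated with 10 μM compound for 30 min, heated for 3 min across 48°C-58°C, pooled and brought to 0.5% NP-40 at 4°C. Values are log-two fold changes in thermal stability relative to solvent controls, from duplicates.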

[1] = compound: CC(=O)c1cnc2ccc(-c3cc(Cl)c(O)c(Cl)c3)nc2c1N[C@H]1CC[C@H](CN(C)C)CC1
How it was run: as §1

ralimetinib = compound: CC(C)(C)Cn1c(N)nc2ccc(-c3[nH]c(C(C)(C)C)nc3-c3ccc(F)cc3)nc21 [ralimetinib]
How it was run: as §1

[2] = compound: CC(C)(O)CC(=O)NCCn1ccc2ncnc(Nc3ccc(Oc4cccc(C(F)(F)F)c4)c(Cl)c3)c21
How it was run: as §1

[3] = compound: CC(C)C1=C2N=C(C=C(N2N=C1)NCC3=CC=CC=C3)NCCCCCCN
How it was run: as §1

[4] = compound: CC1=C(C(CC(=O)N1)C2=CC=C(C=C2)C(F)(F)F)C(=O)NC3=C(C=C4C(=C3)C=NN4)F
How it was run: as §1

[5] = compound: CC1=C(C2=C(C=C1)C(=O)C3=CC=CC=C3N2CCCN)C
How it was run: as §1

[6] = compound: CC1=C(C=C(C=C1)NC(=O)C2=CC(=CC=C2)C(C)(C)C#N)NC3=CC4=C(C=C3)N=CN(C4=O)C
How it was run: as §1

[7] = compound: CC1=C(C=C(C=C1)NC(=O)C2=CC(=CC=C2)N(C)C)NC(=O)C3=CC=C(C=C3)O
How it was run: as §1

[8] = compound: CC1=CC=C(C=C1)SC2=C3C=C(SC3=CN=C2)C(=O)N
How it was run: as §1

vemurafenib = compound: CCCS(=O)(=O)Nc1ccc(F)c(C(=O)c2c[nH]c3ncc(-c4ccc(Cl)cc4)cc23)c1F [vemurafenib]
How it was run: as §1

[9] = compound: CCCS(=O)(=O)Nc1ccc(F)c(C(=O)c2c[nH]c3ncc(Cl)cc23)c1F
How it was run: as §1

barasertib = compound: CCN(CCCOc1ccc2c(Nc3cc(CC(=O)Nc4cccc(F)c4)[nH]n3)ncnc2c1)CCOP(=O)(O)O [barasertib]
How it was run: as §1

[10] = compound: CC[C@@H]1C(=O)N(C)c2cnc(Nc3ccc(C(=O)NC4CCN(C)CC4)cc3OC)nc2N1C1CCCC1
How it was run: as §1

volasertib = compound: CC[C@@H]1C(=O)N(C)c2cnc(Nc3ccc(C(=O)N[C@H]4CC[C@H](N5CCN(CC6CC6)CC5)CC4)cc3OC)nc2N1C(C)C [volasertib]
How it was run: as §1

[11] = compound: CCn1c(C(=O)N(C2CC2)C2CC2)cc2c3c(ncn3C)c(Nc3cc(C)n(C)n3)nc21
How it was run: as §1

[12] = compound: CCn1cc(-c2ccnc3[nH]c(-c4cccc(CN(C)C)c4)cc23)c(-c2ccc(NC(=O)N(C)C)cc2)n1
How it was run: as §1

[13] = compound: CN1CCC(CNc2ccc3ncc(-c4cccc(OC(F)(F)F)c4)n3n2)CC1
How it was run: as §1

saracatinib = compound: CN1CCN(CCOc2cc(OC3CCOCC3)c3c(Nc4c(Cl)ccc5c4OCO5)ncnc3c2)CC1 [saracatinib]
How it was run: as §1

sotrastaurin = compound: CN1CCN(c2nc(C3=C(c4c[nH]c5ccccc45)C(=O)NC3=O)c3ccccc3n2)CC1 [sotrastaurin]
How it was run: as §1

Measured: log2 fold change

SMC5 (UniProt Q8IY18)
inactive: ibrutinib -0.012 | [1] -0.011 | ralimetinib 0.022 | [2] -0.005 | [3] 0 | [4] -0.008 | [5] -0.022 | [6] 0.013 | [7] 0.024 | [8] 0.019 | vemurafenib 0.017 | [9] -0.001 | barasertib 0.025 | [10] 0.021 | volasertib 0.002 | [11] -0.019 | [12] -0.075 | [13] 0.055 | saracatinib 0.014 | sotrastaurin -0.023

SNX2 isoform 2 (UniProt O60749)
inactive: ibrutinib 0.025 | [1] -0.136 | ralimetinib -0.261 | [2] -0.331 | [3] -0.044 | [4] -0.126 | [5] -0.264 | [6] 0.311 | [7] -0.06 | [8] -0.046 | vemurafenib 0.275 | [9] 0.101 | barasertib 0.021 | [10] 0.299 | volasertib 0.048 | [11] -0.181 | saracatinib 0.009 | sotrastaurin -0.072

SNX16 (UniProt P57768)
inactive: ibrutinib 0.057 | [1] 0.014 | ralimetinib -0.015 | [2] -0.005 | [3] -0.02 | [4] -0.09 | [5] 0.01 | [6] -0.027 | [7] -0.027 | [8] 0.031 | vemurafenib -0.119 | [9] 0.041 | barasertib 0.027 | [10] 0.071 | volasertib -0.033 | [11] -0.033 | [12] -0.051 | [13] 0.102 | saracatinib 0.051 | sotrastaurin -0.018

SP4 (UniProt Q02446)
inactive: ibrutinib 0.163 | [1] 0.006 | ralimetinib -0.053 | [2] -0.196 | [3] 0.073 | [5] 0 | [6] -0.104 | [7] -0.018 | [8] 0.086 | vemurafenib -0.063 | [9] 0.081 | barasertib 0.108 | [10] -0.053 | volasertib -0.085 | [11] 0.014 | [12] -0.37 | [13] 0.055 | saracatinib 0.025 | sotrastaurin -0.041

SNAP47 (UniProt Q5SQN1)
inactive: ibrutinib 0.138 | ralimetinib 0.012 | [2] -0.033 | [3] 0.003 | [4] 0.088 | [5] 0.031 | [6] 0.073 | [7] 0.011 | barasertib -0.08 | [10] 0.132 | [11] -0.016 | [12] -0.437 | [13] 0.147 | saracatinib 0.021 | sotrastaurin -0.049

Two records picked at random from those above, as already listed:
SNX16 (UniProt P57768)
inactive: ibrutinib 0.057 | [1] 0.014 | ralimetinib -0.015 | [2] -0.005 | [3] -0.02 | [4] -0.09 | [5] 0.01 | [6] -0.027 | [7] -0.027 | [8] 0.031 | vemurafenib -0.119 | [9] 0.041 | barasertib 0.027 | [10] 0.071 | volasertib -0.033 | [11] -0.033 | [12] -0.051 | [13] 0.102 | saracatinib 0.051 | sotrastaurin -0.018

SNX2 isoform 2 (UniProt O60749)
inactive: ibrutinib 0.025 | [1] -0.136 | ralimetinib -0.261 | [2] -0.331 | [3] -0.044 | [4] -0.126 | [5] -0.264 | [6] 0.311 | [7] -0.06 | [8] -0.046 | vemurafenib 0.275 | [9] 0.101 | barasertib 0.021 | [10] 0.299 | volasertib 0.048 | [11] -0.181 | saracatinib 0.009 | sotrastaurin -0.072

(cont.)

SPARC (UniProt P09486)
inactive: ibrutinib -0.051 | ralimetinib -0.03 | [2] -0.1 | [3] -0.083 | [5] -0.084 | [6] -0.062 | [7] 0.012 | vemurafenib 0.061 | barasertib 0.04 | [10] 0.016 | [11] -0.024 | [12] -0.132 | [13] -0.083 | saracatinib -0.045 | sotrastaurin 0.018

SORBS3 (UniProt O60504)
inactive: ibrutinib -0.005 | [1] 0.067 | ralimetinib 0.099 | [2] -0.113 | [3] -0.035 | [5] -0.158 | [6] 0.046 | [7] -0.05 | [8] -0.114 | vemurafenib -0.092 | [9] 0.067 | barasertib -0.032 | [10] 0.034 | volasertib -0.129 | [11] -0.05 | [12] -0.025 | [13] 0.004 | saracatinib 0.052 | sotrastaurin -0.011

SNUPN (UniProt O95149)
inactive: ibrutinib -0.072 | [1] 0.001 | ralimetinib -0.008 | [2] -0.068 | [3] -0.116 | [4] -0.065 | [6] 0.001 | [7] -0.036 | [8] 0.027 | vemurafenib -0.008 | [9] 0.007 | barasertib 0.06 | [10] -0.082 | volasertib 0.04 | [11] 0.051 | [12] -0.024 | [13] -0.036 | sotrastaurin 0.028

SMIM20 isoform 2 (UniProt Q8N5G0)
inactive: ibrutinib 0.033 | [1] -0.06 | [3] 0.099 | [4] 0.045 | [5] 0 | [6] -0.062 | [8] 0.025 | vemurafenib 0.112 | [9] 0.027 | barasertib 0.111 | volasertib 0.042 | [12] 0.112 | [13] -0.051 | saracatinib -0.008 | sotrastaurin 0.122

SNAPC2 (UniProt Q13487)
inactive: ibrutinib 0.092 | ralimetinib 0.002 | [2] -0.029 | [3] -0.032 | [4] -0.073 | [5] -0.071 | [6] -0.008 | [7] 0.011 | barasertib -0.211 | [11] 0.04 | [12] 0.039 | [13] 0.048 | saracatinib 0.038 | sotrastaurin 0.154

SMDT1 (UniProt Q9H4I9)
inactive: ibrutinib -0.001 | [1] 0.076 | ralimetinib 0.058 | [2] 0.066 | [3] -0.087 | [5] -0.122 | [7] 0.039 | [8] -0.033 | [9] -0.011 | barasertib -0.054 | volasertib 0.035 | [11] -0.051 | [12] -0.101 | [13] 0.006 | saracatinib 0.033

SNX4 (UniProt O95219)
inactive: ibrutinib -0.018 | ralimetinib -0.056 | [2] -0.092 | [3] -0.023 | [4] 0.047 | [5] 0.006 | [6] -0.101 | [7] -0.054 | vemurafenib 0.002 | barasertib 0.052 | [10] -0.019 | [11] -0.058 | [12] -0.022 | [13] -0.008 | saracatinib 0.009 | sotrastaurin 0.014

SNAPC3 (UniProt Q92966)
inactive: ibrutinib -0.213 | [3] 0.084 | [4] 0.011 | [5] -0.048 | [6] 0.028 | barasertib 0.241 | [10] -0.098 | [12] 0.089 | [13] 0.087 | saracatinib 0.217 | sotrastaurin -0.197

SOD3 (UniProt P08294)
inactive: ibrutinib -0.009 | [1] 0.148 | [8] -0.025 | vemurafenib 0.064 | [9] -0.062 | barasertib -0.131 | [10] 0.055 | volasertib -0.009 | [12] 0.071 | [13] 0.023

SOX5 (UniProt P35711)
inactive: ibrutinib -0.064 | [1] 0.14 | ralimetinib -0.049 | [2] 0.02 | [3] 0.091 | [5] 0.053 | [6] 0.036 | [7] 0.088 | [8] -0.105 | vemurafenib 0.141 | [9] 0.175 | barasertib 0.048 | [10] 0.176 | volasertib -0.034 | [11] 0.049 | [12] -0.043 | [13] -0.043 | saracatinib 0.076 | sotrastaurin -0.131

SOX12 (UniProt O15370)
inactive: ibrutinib -0.02 | [5] 0.047 | [6] -0.037 | vemurafenib 0.165 | barasertib 0.115 | [12] 0.124 | [13] 0.053 | saracatinib 0.157 | sotrastaurin 0.054

SMUG1 (UniProt Q53HV7)
inactive: ibrutinib 0.009 | [1] 0.026 | ralimetinib 0.133 | [2] -0.035 | [3] -0.125 | [4] -0.011 | [5] -0.206 | [7] -0.01 | [8] -0.035 | vemurafenib 0.051 | [9] 0.073 | barasertib 0.038 | [10] 0.086 | volasertib 0.008 | [11] -0.002 | [12] -0.051 | [13] -0.042 | saracatinib 0

SMARCC2 isoform 3 (UniProt Q8TAQ2)
inactive: ibrutinib 0.136 | [1] -0.036 | ralimetinib 0.024 | [2] -0.043 | [4] -0.052 | [5] 0.027 | [6] -0.052 | [7] -0.084 | [8] -0.108 | [9] 0.159 | barasertib 0.132 | volasertib 0.151 | [11] 0.043 | saracatinib -0.053 | sotrastaurin -0.059
